Laboratory results taken from patent US4929633A, “Actinonin derivatives having physiological activities” (Zaidan Hojin Biseibutsu Kagaku Kenkyu Kai, priority 1987, dated 1990).
At least one structure is not confirmed: it was looked up by name or label, or the drawing left a doubt.

Protein sequences, listed by entry. Tags and fused reporters are not part of them. Lines headed by an entry give the natural chain unless they say otherwise; changes in a name come on top. Residues count along the entry.
UniProt P23687: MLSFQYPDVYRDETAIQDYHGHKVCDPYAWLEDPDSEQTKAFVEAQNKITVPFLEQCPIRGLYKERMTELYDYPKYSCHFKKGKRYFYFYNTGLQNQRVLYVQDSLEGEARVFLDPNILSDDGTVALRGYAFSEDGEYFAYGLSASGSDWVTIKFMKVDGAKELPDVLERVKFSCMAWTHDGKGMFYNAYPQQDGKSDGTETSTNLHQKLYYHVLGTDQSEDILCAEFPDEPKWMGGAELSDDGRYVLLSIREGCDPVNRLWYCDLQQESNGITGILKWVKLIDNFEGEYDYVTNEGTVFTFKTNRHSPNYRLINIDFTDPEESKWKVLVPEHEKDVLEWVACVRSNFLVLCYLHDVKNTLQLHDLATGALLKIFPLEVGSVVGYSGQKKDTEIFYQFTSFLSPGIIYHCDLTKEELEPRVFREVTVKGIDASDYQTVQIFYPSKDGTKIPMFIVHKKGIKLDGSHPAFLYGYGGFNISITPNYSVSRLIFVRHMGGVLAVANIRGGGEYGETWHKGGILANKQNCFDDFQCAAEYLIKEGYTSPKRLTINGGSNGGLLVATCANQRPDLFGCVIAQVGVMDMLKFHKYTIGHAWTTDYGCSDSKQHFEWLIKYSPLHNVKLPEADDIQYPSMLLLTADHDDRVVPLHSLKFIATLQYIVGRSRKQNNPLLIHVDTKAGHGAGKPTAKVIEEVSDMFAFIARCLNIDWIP
UniProt P12821, 30-1306, species assumed: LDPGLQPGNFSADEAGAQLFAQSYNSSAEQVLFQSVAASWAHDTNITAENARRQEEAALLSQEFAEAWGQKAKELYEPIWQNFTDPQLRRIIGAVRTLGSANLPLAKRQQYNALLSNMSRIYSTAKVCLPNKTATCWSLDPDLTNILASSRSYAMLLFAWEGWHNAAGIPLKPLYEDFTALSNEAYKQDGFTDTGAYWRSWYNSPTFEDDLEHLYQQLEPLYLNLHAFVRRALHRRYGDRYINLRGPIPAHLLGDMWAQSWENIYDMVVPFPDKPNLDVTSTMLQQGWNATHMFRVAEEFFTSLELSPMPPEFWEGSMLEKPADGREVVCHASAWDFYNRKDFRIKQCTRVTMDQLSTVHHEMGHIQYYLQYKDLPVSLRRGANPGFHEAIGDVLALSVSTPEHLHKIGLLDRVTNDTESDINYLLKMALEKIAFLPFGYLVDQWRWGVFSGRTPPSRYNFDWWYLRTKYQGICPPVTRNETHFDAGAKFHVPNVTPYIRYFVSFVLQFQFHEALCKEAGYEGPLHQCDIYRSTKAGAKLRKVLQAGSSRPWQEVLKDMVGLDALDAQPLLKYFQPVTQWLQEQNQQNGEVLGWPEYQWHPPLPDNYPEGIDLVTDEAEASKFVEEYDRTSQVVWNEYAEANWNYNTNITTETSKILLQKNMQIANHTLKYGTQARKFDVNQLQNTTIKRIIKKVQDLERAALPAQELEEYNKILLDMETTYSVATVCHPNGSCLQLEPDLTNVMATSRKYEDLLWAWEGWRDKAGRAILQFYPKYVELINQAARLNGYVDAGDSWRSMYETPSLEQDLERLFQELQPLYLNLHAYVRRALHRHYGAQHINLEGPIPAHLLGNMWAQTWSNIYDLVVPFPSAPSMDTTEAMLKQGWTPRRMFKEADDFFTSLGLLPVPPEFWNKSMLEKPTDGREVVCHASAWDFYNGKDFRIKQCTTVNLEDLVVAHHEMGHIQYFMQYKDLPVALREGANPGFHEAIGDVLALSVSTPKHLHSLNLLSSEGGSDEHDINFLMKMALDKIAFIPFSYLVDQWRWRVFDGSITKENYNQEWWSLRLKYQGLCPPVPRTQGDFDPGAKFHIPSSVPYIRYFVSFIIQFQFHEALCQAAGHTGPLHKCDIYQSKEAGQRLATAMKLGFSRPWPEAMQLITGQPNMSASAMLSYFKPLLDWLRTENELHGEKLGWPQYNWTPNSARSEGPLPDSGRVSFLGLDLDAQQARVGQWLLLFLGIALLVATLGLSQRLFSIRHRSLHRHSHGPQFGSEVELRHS

Legend:
[1] = biological target: T1, post-proline-cleaving enzyme (PPCE) (Sus scrofa, UniProt P23687); assay: PPCE-inhibitory activity (substrate Z-Gly-Pro-PNA); format: biochemical, swine
T1 construct: PPCE used was an enzyme preparation made from swine kidney; from tissue; host or cells: swine kidney, ammonium sulfate fractionation and DEAE-Sephadex chromatography
Description: The enzyme-inhibitory activities of these test compounds against PPCE were estimated by adding a substrate compound of the formula [drawing 18] namely, N-benzyloxycarbonyl-glycyl-prolyl-p-nitroanilide (Z-Gly-Pro-PNA) to a solution of an enzyme, then adding to the solution each test compound having the enzyme-inhibiting activity to be assayed, reacting the substrate, the enzyme and the test compounds with each other at 37° C. for 15 minutes and then measuring the consumed amount of the substrate in terms of the determined reduction in the absorbency of a ultraviolet ray of a given wave length which transmitted the reaction solution where the substrate compounds, the enzyme and the enzyme-inhibiting test compound have been reacted with each other. In these tests, PPCE used was an enzyme preparation made from swine kidney and prior to its use, was purified by fractionation with ammonium sulfate and by subsequent chromatography on DEAE-Sephadex agent.

[2] = biological target: angiotension-conversion enzyme (ACE) (Homo sapiens, UniProt P12821); assay: ACE-inhibitory activity (method of Analytical Biochemistry 84, 361 (1978)); format: biochemical
From the text: The enzyme-inhibitory activity of the test compounds against ACE were estimated in accordance with a method as described in the literature "Analytical Biochemistry", 84, 361 (1978).

## CCCCC[C@H](CC(=O)O)C(=O)N[C@H](C(=O)N1CCC[C@H]1C=O)C(C)C [Example 1, (2S)-2-pentylsuccinyl-L-valyl-L-prolinal]
[1]
  PPCE-inhibitory activity (in words): strong PPCE-inhibitory activity
[2]
  ACE-inhibitory activity (in words): no enzyme-inhibitory activity against ACE
